Assay results reported in patent US20180244787A1 (Sanofi, published 2018).
Positions count from the first letter of the chain named. Numbers in names are those of the source. These are yes or no findings as the source states them, for the method shown. Some results given as binding are weak or reduced against the parent protein; the word gives no strength.

T1: recombinant human CXCR3 (human, UniProt P49682 1-368, limits assumed)
T1 construct: also called C-X-C motif chemokine receptor 3
T1 sequence (looked up): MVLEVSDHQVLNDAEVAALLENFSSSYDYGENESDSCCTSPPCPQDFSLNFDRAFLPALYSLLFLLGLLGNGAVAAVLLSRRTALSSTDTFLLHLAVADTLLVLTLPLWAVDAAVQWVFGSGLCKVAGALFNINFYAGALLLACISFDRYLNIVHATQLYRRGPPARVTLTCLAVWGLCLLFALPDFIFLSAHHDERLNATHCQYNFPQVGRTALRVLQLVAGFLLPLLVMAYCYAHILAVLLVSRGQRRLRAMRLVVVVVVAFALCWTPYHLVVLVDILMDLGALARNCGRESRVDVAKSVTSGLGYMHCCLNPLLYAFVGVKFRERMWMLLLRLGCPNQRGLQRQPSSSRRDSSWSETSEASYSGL

B1: 53Hu37 CDR variant VH N105F / VL N30R/S92R (antibody, V domains shown)
VH: EVQLLESGGGLVQPGGSLRLSCAASGFTFTSYAMSWVRQAPGKGLEWVATISHGGTYTYYPDSVKGRFTISRDNAKNTLYLQMNSLRAEDTAVYYCARHPIYSGFYQGYFDYWGQGTLVTVSS
VL: DIQLTQSPSFLSASVGDRVTITCRASSGVRYLYWYQQKPGKAPKLWIYFTSTLASGVPSRFSGSGSGNEYTLTISSLQPEDFATYYCQQFTRSPYTFGQGTKLEIK
B2: 53Hu37 CDR variant VH N105F / VL S92R (antibody, V domains shown)
VH: B1 VH
VL: B1 VL with R30N
B3: 53Hu37 CDR variant VH N105W / VL S92R (antibody, V domains shown)
VH: B1 VH with F105W
VL: B1 VL with R30N
B4: 53Hu37 CDR variant VH N105W / VL 53Hu37 (antibody, V domains shown)
VH: B1 VH with F105W
VL: B1 VL with R30N, R92S
B5: 53Hu37 CDR variant VH S103A / VL N30R/S92R (antibody, V domains shown)
VH: B1 VH with S103A, F105N
VL: B1 VL
B6: 53Hu37 CDR variant VH S103C / VL N30R/S92R (antibody, V domains shown)
VH: B1 VH with S103C, F105N
VL: B1 VL
B7: 53Hu37 CDR variant VH S103D / VL N30R/S92R (antibody, V domains shown)
VH: B1 VH with S103D, F105N
VL: B1 VL
B8: 53Hu37 CDR variant VH S103E / VL N30R/S92R (antibody, V domains shown)
VH: B1 VH with S103E, F105N
VL: B1 VL
B9: 53Hu37 CDR variant VH S103F / VL N30R/S92R (antibody, V domains shown)
VH: B1 VH with S103F, F105N
VL: B1 VL
B10: 53Hu37 CDR variant VH S103G / VL N30R/S92R (antibody, V domains shown)
VH: B1 VH with S103G, F105N
VL: B1 VL
B11: 53Hu37 CDR variant VH S103H / VL N30R/S92R (antibody, V domains shown)
VH: B1 VH with S103H, F105N
VL: B1 VL
B12: 53Hu37 CDR variant VH S103I / VL N30R/S92R (antibody, V domains shown)
VH: B1 VH with S103I, F105N
VL: B1 VL
B13: 53Hu37 CDR variant VH S103K / VL N30R/S92R (antibody, V domains shown)
VH: B1 VH with S103K, F105N
VL: B1 VL
B14: 53Hu37 CDR variant VH S103L / VL N30R/S92R (antibody, V domains shown)
VH: B1 VH with S103L, F105N
VL: B1 VL
B15: 53Hu37 CDR variant VH S103M / VL N30R/S92R (antibody, V domains shown)
VH: B1 VH with S103M, F105N
VL: B1 VL
B16: 53Hu37 CDR variant VH S103N / VL N30R/S92R (antibody, V domains shown)
VH: B1 VH with S103N, F105N
VL: B1 VL
B17: 53Hu37 CDR variant VH S103P / VL N30R/S92R (antibody, V domains shown)
VH: B1 VH with S103P, F105N
VL: B1 VL
B18: 53Hu37 CDR variant VH S103Q / VL N30R/S92R (antibody, V domains shown)
VH: B1 VH with S103Q, F105N
VL: B1 VL
B19: 53Hu37 CDR variant VH S103R / VL N30R/S92R (antibody, V domains shown)
VH: B1 VH with S103R, F105N
VL: B1 VL
B20: 53Hu37 CDR variant VH S103T / VL N30R/S92R (antibody, V domains shown)
VH: B1 VH with S103T, F105N
VL: B1 VL
B21: 53Hu37 CDR variant VH S103V / VL N30R/S92R (antibody, V domains shown)
VH: B1 VH with S103V, F105N
VL: B1 VL
B22: 53Hu37 CDR variant VH S103W / VL N30R/S92R (antibody, V domains shown)
VH: B1 VH with S103W, F105N
VL: B1 VL
B23: 53Hu37 CDR variant VH S103Y / VL N30R/S92R (antibody, V domains shown)
VH: B1 VH with S103Y, F105N
VL: B1 VL
B24: 53Hu37 CDR variant VH T56K/N105W / VL S92R (antibody, V domains shown)
VH: B1 VH with T56K, F105W
VL: B1 VL with R30N
B25: 53Hu37 CDR variant VH T56R/N105F / VL N30R/S92R (antibody, V domains shown)
VH: B1 VH with T56R
VL: B1 VL
B26: 53Hu37 CDR variant VH T56R/N105F / VL S92R (antibody, V domains shown)
VH: B1 VH with T56R
VL: B1 VL with R30N
B27: 53Hu37 CDR variant VH T56R/N105F / VL 53Hu37 (antibody, V domains shown)
VH: B1 VH with T56R
VL: B1 VL with R30N, R92S
B28: 53Hu37 CDR variant VH Y102H / VL S92R (antibody, V domains shown)
VH: B1 VH with Y102H, F105N
VL: B1 VL with R30N
B29: 53Hu37 CDR variant VH G54K/N105F / VL 53Hu37 (antibody, V domains shown)
VH: B1 VH with G54K
VL: B1 VL with R30N, R92S
B30: 53Hu37 CDR variant VH G54K/T56K/N105F / VL S92R (antibody, V domains shown)
VH: B1 VH with G54K, T56K
VL: B1 VL with R30N
B31: 53Hu37 CDR variant VH G54K/T56K/N105F / VL 53Hu37 (antibody, V domains shown)
VH: B1 VH with G54K, T56K
VL: B1 VL with R30N, R92S
B32: 53Hu37 CDR variant VH G54R/N105F / VL N30R/S92R (antibody, V domains shown)
VH: B1 VH with G54R
VL: B1 VL
B33: 53Hu37 CDR variant VH G54R/N105F / VL 53Hu37 (antibody, V domains shown)
VH: B1 VH with G54R
VL: B1 VL with R30N, R92S
B34: 53Hu37 CDR variant VH G54R/N105W / VL 53Hu37 (antibody, V domains shown)
VH: B1 VH with G54R, F105W
VL: B1 VL with R30N, R92S
B35: 53Hu37 CDR variant VH G54R/T56R/N105F / VL N30R/S92R (antibody, V domains shown)
VH: B1 VH with G54R, T56R
VL: B1 VL
B36: 53Hu37 CDR variant VH G54R/T56R/N105F / VL T91R (antibody, V domains shown)
VH: B1 VH with G54R, T56R
VL: B1 VL with R30N, T91R, R92S
B37: 53Hu37 CDR variant VH G54R/T56R/N105F / VL 53Hu37 (antibody, V domains shown)
VH: B1 VH with G54R, T56R
VL: B1 VL with R30N, R92S
B38: 53Hu37 CDR variant VH H53R/N105Q / VL 53Hu37 (antibody, V domains shown)
VH: B1 VH with H53R, F105Q
VL: B1 VL with R30N, R92S

biological target: T1, recombinant human CXCR3; assay: Biacore, recombinant human CXCR3

binding, binds:
B1
B2
B3
B4
B5
B6
B7
B8
B9
B10
B11
B12
B13
B14
B15
B16
B17
B18
B19
B20
B21
B22
B23
B24
B25
B26
B27
B28
B29
B30
B31
B32
B33
B34
B35
B36
B37
B38
